PubChem BioAssay AID1851 (National Center for Advancing Translational Sciences (NCATS), 2009)
Out of some 16,000 compounds screened, about 2,600 (16%) were called active. Inconclusive results, whose numbers are uncertain, are shown with a selection of clear calls. Calls come from the whole dose curve; as a rule, active = well fitted curve in the direction sought with a large enough effect; inconclusive = small, poorly fitted or top-dose-only effect, or effect the other way; inactive = no such curve, though single readings can be large or run the other way. Potencies beside an inconclusive call are fits to weak or partial responses and may not hold up.

Amino acid sequences for entries named in this document (tags omitted).
UniProt P10635, whole entry, looked up: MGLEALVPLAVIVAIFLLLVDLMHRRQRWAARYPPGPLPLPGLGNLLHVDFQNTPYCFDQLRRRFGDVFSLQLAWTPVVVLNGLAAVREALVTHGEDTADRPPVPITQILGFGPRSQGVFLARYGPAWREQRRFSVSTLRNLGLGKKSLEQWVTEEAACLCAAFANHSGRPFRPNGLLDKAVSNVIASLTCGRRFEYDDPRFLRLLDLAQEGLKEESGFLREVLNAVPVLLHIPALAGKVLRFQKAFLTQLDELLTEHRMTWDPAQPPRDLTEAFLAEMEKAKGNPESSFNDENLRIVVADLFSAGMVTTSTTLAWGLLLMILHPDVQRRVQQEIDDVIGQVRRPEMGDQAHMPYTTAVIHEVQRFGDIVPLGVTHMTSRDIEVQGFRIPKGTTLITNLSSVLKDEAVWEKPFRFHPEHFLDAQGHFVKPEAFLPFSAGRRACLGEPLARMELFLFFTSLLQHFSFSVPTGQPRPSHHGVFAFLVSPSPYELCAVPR

The compounds below were run against Cytochrome P450 2D6 (Homo sapiens) (UniProt P10635) (assay: Cytochrome panel assay with activity outcomes). Conditions: recombinant CYP, pro-luciferin dealkylation, luminescence, p450-cyp2d6; activity, negative = inhibition: at 11.4 µM (top of the series).
Procedure: The P450 gene superfamily is involved in the metabolism and clearance of xenobiotics. This assay used various human CYP P450 isozymes to measure the dealkylation of various pro-luciferin substrates to luciferin. The luciferin is then measured by luminescence after the addition of a luciferase detection reagent. Pro-luciferin substrate concentration in the assay was equal to its KM for its CYP P450 isozyme. Inhibitors and some substrates limit the production of luciferin, and decrease measured luminescence.
NCGC Assay Protocol Summary:
1, Reagent, 2 uL, Isozyme and Pro-Luciferin
2, Library compounds, 23 nl, 40 uM to 0.24 nM dilution series
3, Controls, 23 nl, Isozyme specific inhibitor
4, Reagent, 2 uL, NADPH regeneration solution
5, Incubation time, 60 min, Isozyme specific temperature
6, Reagent, 4ul, Detection reagent
7, Incubation time, 20 min, Isozyme specific temperature
8, Detection, 1 sec, ViewLux luminescent read
The luciferase-based P450-GloTM Screening Systems were obtained from Promega (Madison, WI) for CYP 1A2 (V9770), CYP 2C9 (V9790), CYP2 C19 (V9880), CYP 2D6 (V9890), and CYP 3A4 Luciferin-PPXE (V9910) and were adapted for 1,536-well microplates and an automated protocol. The control compounds furafylline for 1A2 (F124), sulfaphenazole for CYP 2C9 (S0758), ketoconazole for CYP 2C19 (K1003), quinidine for 2D6 (Q3625), and ketoconazole for 3A4 (K1003) were purchased from Sigma Aldrich (St. Louis, MO). Recombinant P450 enzymes were obtained from baculovirus constructs expressed in insect cells (BD/Gentest).
Medium-binding white solid Kalypsys plates used. Mixtures kept on ice. 1A2: 10 nM 1A2, 100 uM Luc-ME, 100 mM KPO4; 2C9: 10 nM 2C9, 100 uM Luc-H, 25 mM KPO4; 2C19: 5 nM 2C19, 10 uM Luc-H EGE, 50 mM KPO4; 2D6: 5 nM 2D6, 30 uM Luc-ME EGE, 100 mM KPO4; 3A4: 10 nM, 25 uM Luc-PPXE. All amounts are reflected in their final concentration, working concentration is 2x.
NADPH regeneration solution: 1.3 mM NADP+, 3.3 mM glucose-6-phosphate, 3.3 mM MgCl2, 0.4 U/mL glucose-6-phosphate dehydrogenase for all isozymes, 200 mM KPO4 for 3A4. Mixture prepared at RT but kept on ice during automated run.
RT incubation in auxilliary plate hotel for 1A2, 2D6, and 3A4; 37C for 2C9 and 2C19.
Keywords: P450, CYP1A2, CYP2C19, CYP2C9, CYP2D6, CYP3A4, Luciferase, MLSMR, MLSCN, NIH Roadmap, qHTS, NCGC
% is set by controls: 0 for no effect and ±100 for the full control effect.

Row | SMILES | AC50 | activity, negative = inhibition
1 | COc1ccc2c(c1)C13CCCC[C@@H]1C(C2)N(C)CC3 (stereo not given in full) | active: 3.98 µM | –
2 | Cc1ccc(NC(=[OH+])c2cc3ccccc3cc2O)c(C)c1.Cc1ccc(NC(=[OH+])c2cc3ccccc3cc2O)c(C)c1.[Ni] | inconclusive: 3.16 µM [falling, partial curve] | –
3 | CSC([N-]/N=C/c1cccc(C)n1)=[S]=[Cu].CS[C@H]([S-])[N-]/N=C/c1cccc(C)n1 | inconclusive: 3.16 µM [falling, partial curve] | –
4 | CO[C@@H]([CH2][Hg])CN1C(=O)c2ccccc2S1(=O)=O.Cn1c(=O)c2nc[nH]c2n(C)c1=O | – | inconclusive: 32.6% [partial curve]
5 | C[C@@H](O)CN(CCN(C[C@@H](C)O)C[C@@H](C)O)C[C@@H](C)O.O=[N+]([O-])O.[Cu] | inconclusive: 3.98 µM [falling, partial curve] | –
